Laboratory results taken from the supplement of paper PMC3334620.
The full ranking holds about 33,000 sequences; the median of “E-score (-0.5 to 0.5)” is about -0.0059, and the highest 2% start at about 0.26. Some of the results follow.

Target: T1, Cin5 (UniProt P40917)
T1 sequence: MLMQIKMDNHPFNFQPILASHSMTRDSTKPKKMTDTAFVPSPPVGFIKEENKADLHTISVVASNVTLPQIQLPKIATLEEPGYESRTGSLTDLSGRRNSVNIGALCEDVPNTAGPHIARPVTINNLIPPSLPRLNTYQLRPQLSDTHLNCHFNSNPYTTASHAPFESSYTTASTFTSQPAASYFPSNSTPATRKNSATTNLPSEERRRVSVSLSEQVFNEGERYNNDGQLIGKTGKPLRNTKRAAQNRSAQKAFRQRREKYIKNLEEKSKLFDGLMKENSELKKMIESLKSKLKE
Experiment: PBM E-score (8-mer binding enrichment) (E-score (-0.5 to 0.5)); higher = stronger / more preferred TF binding
Conditions: protein concentration: 100 nM; construct: GST-full length
In short: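 Yeast transcription factors, full-length or as DNA-binding domains, were expressed with a GST tag using PURExpress in vitro transcription/translation. At about 100-200 nM they were applied to universal all-10-mer Agilent arrays, double-stranded by primer extension on fresh or once-stripped slides. Fluorescent anti-GST detected bound protein, and masliner normalised the scans. E-scores for ungapped eight-base words, pooled with reverse complements, came from the Universal PBM Analysis Suite.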

Sequence	PBM E-score
GCTGGGCA	-0.142
AGGTCCTC	-0.134
AGCGTGAA	-0.0664
ACCCTTCT	-0.139
TCCGCTAA	-0.0291
CGCCGTCA	-0.0399
CGCTGTAC	0.0257
ACATGGGC	0.0848
CACGGAAG	-0.123
GAGCGCGA	0.0856
GCTGCTCC	-0.176
AACGTAGC	-0.0954
ATGACTTA	0.149
CTGTAGAC	-0.0711
ATACTCGA	0.0784
CGCGCGCG	-0.0317
TCGCTGCA	-0.0534
CTGGATTA	0.247
TTACACAA	0.239
AATCCATC	0.111
CTGTAGCA	-0.13
GCTTAGAA	0.0547
TCGTTACA	-0.0281
AAGGCCGG	-0.0637
GGTAGGGA	0.0415

Looked up above.
Entry of CTGTAGCA under PBM E-score: -0.13
Entry of GAGCGCGA under PBM E-score: 0.0856
Entry of TTACACAA under PBM E-score: 0.239
Entry of CGCTGTAC under PBM E-score: 0.0257
Entry of TCGCTGCA under PBM E-score: -0.0534

Remaining list, next part:

Sequence	PBM E-score
CAAAGTTA	0.0944
CAAGCGAA	0.187
TCGGCCCA	-0.163
ATTTGGGG	0.122
GGCTCGGA	-0.187
CTGGTTAC	-0.0622
ATCTTAAT	0.137
GAGGCGAC	-0.213
AGCAACTA	0.11
CCTTAGTC	-0.214
GCTTCTAA	-0.109
CGCAACAA	0.0628
CCCTTAAA	-0.151
ATTTCCAG	0.0539
CCCATATC	0.156
CGAACGCA	0.242
GCGCCTCA	0.0601
ACATTTCT	0.114
AGGGCAAC	-0.00754
CACTCAAG	-0.148
ATCGCGGC	0.129
CCATGCAG	0.0336
AACCGGCA	-0.126
AAAACAAC	-0.0722
CACATAGG	-0.0157

Sequence	PBM E-score
CAGGTTGA	-0.0949
CCTCCATC	-0.151
AAAATAAG	0.223
ATTGCTTC	-0.0228
ACGACCGT	-0.249
GCAGGCAC	-0.29
AGGATCGC	-0.0224
CGAGTACA	0.131
ACCAACAC	0.124
CCGTCCAA	0.00895
CGGAGTGC	-0.01
GGGCGGGA	0.154
AGCGTTTG	-0.128
AGCAGCAA	-0.0541
ACAGGGGT	-0.208
CCAACCAC	0.116
AACTCACA	0.149
TCGGGCCA	-0.183
ACTCTTTG	-0.0462
ACCCTTAA	-0.112
ACTACCCT	-0.0182
GACTCCAC	-0.187
AGCTGCAC	0.0426
CTAAGAAA	-0.0357
ACCATAAC	0.074

Sequence	PBM E-score
AAAAGGAT	0.0256
GACGTCAC	0.00326
CACGTAAA	-0.0217
CCTCTGTC	-0.0833
ACTTACAT	0.201
CCCGCTAC	-0.089
AGAAACAC	0.0288
AGATAGGA	-0.122
ACATCGAA	0.136
AGGAGTAG	-0.0454
CAACAAGA	0.0827
AACTCCAA	0.134
CCACCTAC	-0.164
CATAAAAG	-0.0651
AGGACCAA	-0.0567
ACTGGCTA	-0.0993
CTCAGTAC	0.0422
AGCGTGCC	-0.203
GAGTTCCA	-0.0283
CGCCCCAA	0.173
GCTGTCCC	-0.145
CGTTTCTC	-0.147
GTATGTAA	0.242
GACCGGTC	-0.0542
GACCTTCC	-0.147

Sequence	PBM E-score
ACACGGAC	-0.132
CACAATTA	0.0753
CCCGTAAA	0.0279
CATATTAG	0.16
AGGCTCCA	-0.178
ACATGGGA	0.115
GGCTTGTA	-0.122
ATTCCTGG	0.032
GCGGCCAA	-0.164
ATTACTAG	0.105
GAAGGGGA	-0.0811
TACCCAGA	0.12
CCGATCAG	-0.0546
CACGCGTG	0.102
ATCGGGAA	0.141
CGTAGTTA	0.0498
AACCGTAC	-0.255
CCCCGTTC	-0.0834
CACCGAAC	-0.174
ACGTTAAT	0.167
GTAATCAC	0.321
AGCGCACA	0.0716
GATAAGCC	0.0299
CCGCTCCA	-0.202
ACCCACCG	0.0791

Sequence	PBM E-score
ATTCCACC	0.15
AAGGGAAT	0.0586
ACTGACAC	-0.0491
GAGCCGAA	-0.0371
TGGCGTAA	-0.0336
CCTCAAGG	-0.254
AGGCGTGA	-0.232
CAAGGCAG	-0.00243
AAAGAGGC	-0.211
ATGCAGGC	-0.0288
CGATCCAC	-0.103
TTCCACAA	0.19
TACAGCCA	-0.0547
CGTAATAA	0.239
ACGAGGAC	-0.0789
CGCACTAA	0.086
CGTATCGC	-0.0212
ATCGAAGA	0.13
GCCCCCAC	-0.461
CTCCTCTC	-0.262
AAGTACCG	0.0523
CACGCCTG	-0.121
CTGAACGA	-0.204
ATGCCGTA	0.119
CGCATTGC	0.0664

Sequence	PBM E-score
CGGATCAC	0.112
GCCTTACA	-0.253
CCCTTTAA	-0.0752
TATACGGA	-0.0482
AGACAGCC	-0.174
TATGCTAA	0.0753
CCACCGTC	-0.204
AAGTTCTC	-0.0732
AGTAAGCG	0.354
AAGTTTGT	0.0352
CCATCCGC	0.135
GTCACATA	0.0519
AACCGATC	-0.0743
CTCCGGCC	-0.371
CACACACC	0.00822
CATCTCAC	0.0306
CTCTCTCA	-0.168
ACATCGTG	0.0375
AAGGATTG	-0.0117
AGCACCAA	0.0787
CGCCGTGC	-0.0852
TCGATCGA	0.211
